Measured values as given in patent publication US8278309B2, “Synthetic mimetics of host defense and uses thereof” (priority 2008, dated 2012).

System: Pseudomonas aeruginosa
Test: MIC broth microdilution, Gram-negative clinical isolates
Format: cell-based
Protocol: Compound A was evaluated in vitro in accordance with defined CLSI documents specific to the organisms (aerobic, anaerobic or yeast) tested in this study. Ampicillin, ceftazidime, cefuroxime, ciprofloxacin, linezolid, and vancomycin were tested alongside as comparator agents for aerobic bacteria; clindamycin and metronidazole were tested as comparators for anaerobes; fluconazole was tested as a comparator for yeast isolates. Stock solutions of Compound A were prepared in dimethyl sulfoxide (DMSO). Ampicillin, ceftazidime, cefuroxime, ciprofloxacin, linezolid, vancomycin, metronidazole, clindamycin, and fluconazole were prepared each according to its manufacturer's guideline.
Minimum inhibitory concentrations (MICs) in μg/ml were determined according to CLSI guideline M7-A7 by broth microdilution. All aerobes were tested using Mueller-Hinton broth medium with the exception of Streptococcus spp., which were tested using cation-adjusted Mueller-Hinton broth supplemented with 2-5% lysed horse blood.

Q: For `CN[C@H](CC(C)C)C(=O)N[C@H]1C(=O)N[C@@H](CC(N)=O)C(=O)N[C@H]2C(=O)N[C@H]3C(=O)N[C@H](C(=O)N[C@H](C(=O)O)c4cc(O)cc(O)c4-c4cc3ccc4O)[C@H](O)c3ccc(c(Cl)c3)Oc3cc2cc(c3O[C@@H]2O[C@H](CO)[C@@H](O)[C@H](O)[C@H]2O[C@H]2C[C@](C)(N)[C@H](O)[C@H](C)O2)Oc2ccc(cc2Cl)[C@H]1O` [Vancomycin], which MIC is on record?
A: > 128 µg/mL
